By UniProt entry, the sequences of proteins in these tests, tags left out.
UniProt Q7Z6Z7: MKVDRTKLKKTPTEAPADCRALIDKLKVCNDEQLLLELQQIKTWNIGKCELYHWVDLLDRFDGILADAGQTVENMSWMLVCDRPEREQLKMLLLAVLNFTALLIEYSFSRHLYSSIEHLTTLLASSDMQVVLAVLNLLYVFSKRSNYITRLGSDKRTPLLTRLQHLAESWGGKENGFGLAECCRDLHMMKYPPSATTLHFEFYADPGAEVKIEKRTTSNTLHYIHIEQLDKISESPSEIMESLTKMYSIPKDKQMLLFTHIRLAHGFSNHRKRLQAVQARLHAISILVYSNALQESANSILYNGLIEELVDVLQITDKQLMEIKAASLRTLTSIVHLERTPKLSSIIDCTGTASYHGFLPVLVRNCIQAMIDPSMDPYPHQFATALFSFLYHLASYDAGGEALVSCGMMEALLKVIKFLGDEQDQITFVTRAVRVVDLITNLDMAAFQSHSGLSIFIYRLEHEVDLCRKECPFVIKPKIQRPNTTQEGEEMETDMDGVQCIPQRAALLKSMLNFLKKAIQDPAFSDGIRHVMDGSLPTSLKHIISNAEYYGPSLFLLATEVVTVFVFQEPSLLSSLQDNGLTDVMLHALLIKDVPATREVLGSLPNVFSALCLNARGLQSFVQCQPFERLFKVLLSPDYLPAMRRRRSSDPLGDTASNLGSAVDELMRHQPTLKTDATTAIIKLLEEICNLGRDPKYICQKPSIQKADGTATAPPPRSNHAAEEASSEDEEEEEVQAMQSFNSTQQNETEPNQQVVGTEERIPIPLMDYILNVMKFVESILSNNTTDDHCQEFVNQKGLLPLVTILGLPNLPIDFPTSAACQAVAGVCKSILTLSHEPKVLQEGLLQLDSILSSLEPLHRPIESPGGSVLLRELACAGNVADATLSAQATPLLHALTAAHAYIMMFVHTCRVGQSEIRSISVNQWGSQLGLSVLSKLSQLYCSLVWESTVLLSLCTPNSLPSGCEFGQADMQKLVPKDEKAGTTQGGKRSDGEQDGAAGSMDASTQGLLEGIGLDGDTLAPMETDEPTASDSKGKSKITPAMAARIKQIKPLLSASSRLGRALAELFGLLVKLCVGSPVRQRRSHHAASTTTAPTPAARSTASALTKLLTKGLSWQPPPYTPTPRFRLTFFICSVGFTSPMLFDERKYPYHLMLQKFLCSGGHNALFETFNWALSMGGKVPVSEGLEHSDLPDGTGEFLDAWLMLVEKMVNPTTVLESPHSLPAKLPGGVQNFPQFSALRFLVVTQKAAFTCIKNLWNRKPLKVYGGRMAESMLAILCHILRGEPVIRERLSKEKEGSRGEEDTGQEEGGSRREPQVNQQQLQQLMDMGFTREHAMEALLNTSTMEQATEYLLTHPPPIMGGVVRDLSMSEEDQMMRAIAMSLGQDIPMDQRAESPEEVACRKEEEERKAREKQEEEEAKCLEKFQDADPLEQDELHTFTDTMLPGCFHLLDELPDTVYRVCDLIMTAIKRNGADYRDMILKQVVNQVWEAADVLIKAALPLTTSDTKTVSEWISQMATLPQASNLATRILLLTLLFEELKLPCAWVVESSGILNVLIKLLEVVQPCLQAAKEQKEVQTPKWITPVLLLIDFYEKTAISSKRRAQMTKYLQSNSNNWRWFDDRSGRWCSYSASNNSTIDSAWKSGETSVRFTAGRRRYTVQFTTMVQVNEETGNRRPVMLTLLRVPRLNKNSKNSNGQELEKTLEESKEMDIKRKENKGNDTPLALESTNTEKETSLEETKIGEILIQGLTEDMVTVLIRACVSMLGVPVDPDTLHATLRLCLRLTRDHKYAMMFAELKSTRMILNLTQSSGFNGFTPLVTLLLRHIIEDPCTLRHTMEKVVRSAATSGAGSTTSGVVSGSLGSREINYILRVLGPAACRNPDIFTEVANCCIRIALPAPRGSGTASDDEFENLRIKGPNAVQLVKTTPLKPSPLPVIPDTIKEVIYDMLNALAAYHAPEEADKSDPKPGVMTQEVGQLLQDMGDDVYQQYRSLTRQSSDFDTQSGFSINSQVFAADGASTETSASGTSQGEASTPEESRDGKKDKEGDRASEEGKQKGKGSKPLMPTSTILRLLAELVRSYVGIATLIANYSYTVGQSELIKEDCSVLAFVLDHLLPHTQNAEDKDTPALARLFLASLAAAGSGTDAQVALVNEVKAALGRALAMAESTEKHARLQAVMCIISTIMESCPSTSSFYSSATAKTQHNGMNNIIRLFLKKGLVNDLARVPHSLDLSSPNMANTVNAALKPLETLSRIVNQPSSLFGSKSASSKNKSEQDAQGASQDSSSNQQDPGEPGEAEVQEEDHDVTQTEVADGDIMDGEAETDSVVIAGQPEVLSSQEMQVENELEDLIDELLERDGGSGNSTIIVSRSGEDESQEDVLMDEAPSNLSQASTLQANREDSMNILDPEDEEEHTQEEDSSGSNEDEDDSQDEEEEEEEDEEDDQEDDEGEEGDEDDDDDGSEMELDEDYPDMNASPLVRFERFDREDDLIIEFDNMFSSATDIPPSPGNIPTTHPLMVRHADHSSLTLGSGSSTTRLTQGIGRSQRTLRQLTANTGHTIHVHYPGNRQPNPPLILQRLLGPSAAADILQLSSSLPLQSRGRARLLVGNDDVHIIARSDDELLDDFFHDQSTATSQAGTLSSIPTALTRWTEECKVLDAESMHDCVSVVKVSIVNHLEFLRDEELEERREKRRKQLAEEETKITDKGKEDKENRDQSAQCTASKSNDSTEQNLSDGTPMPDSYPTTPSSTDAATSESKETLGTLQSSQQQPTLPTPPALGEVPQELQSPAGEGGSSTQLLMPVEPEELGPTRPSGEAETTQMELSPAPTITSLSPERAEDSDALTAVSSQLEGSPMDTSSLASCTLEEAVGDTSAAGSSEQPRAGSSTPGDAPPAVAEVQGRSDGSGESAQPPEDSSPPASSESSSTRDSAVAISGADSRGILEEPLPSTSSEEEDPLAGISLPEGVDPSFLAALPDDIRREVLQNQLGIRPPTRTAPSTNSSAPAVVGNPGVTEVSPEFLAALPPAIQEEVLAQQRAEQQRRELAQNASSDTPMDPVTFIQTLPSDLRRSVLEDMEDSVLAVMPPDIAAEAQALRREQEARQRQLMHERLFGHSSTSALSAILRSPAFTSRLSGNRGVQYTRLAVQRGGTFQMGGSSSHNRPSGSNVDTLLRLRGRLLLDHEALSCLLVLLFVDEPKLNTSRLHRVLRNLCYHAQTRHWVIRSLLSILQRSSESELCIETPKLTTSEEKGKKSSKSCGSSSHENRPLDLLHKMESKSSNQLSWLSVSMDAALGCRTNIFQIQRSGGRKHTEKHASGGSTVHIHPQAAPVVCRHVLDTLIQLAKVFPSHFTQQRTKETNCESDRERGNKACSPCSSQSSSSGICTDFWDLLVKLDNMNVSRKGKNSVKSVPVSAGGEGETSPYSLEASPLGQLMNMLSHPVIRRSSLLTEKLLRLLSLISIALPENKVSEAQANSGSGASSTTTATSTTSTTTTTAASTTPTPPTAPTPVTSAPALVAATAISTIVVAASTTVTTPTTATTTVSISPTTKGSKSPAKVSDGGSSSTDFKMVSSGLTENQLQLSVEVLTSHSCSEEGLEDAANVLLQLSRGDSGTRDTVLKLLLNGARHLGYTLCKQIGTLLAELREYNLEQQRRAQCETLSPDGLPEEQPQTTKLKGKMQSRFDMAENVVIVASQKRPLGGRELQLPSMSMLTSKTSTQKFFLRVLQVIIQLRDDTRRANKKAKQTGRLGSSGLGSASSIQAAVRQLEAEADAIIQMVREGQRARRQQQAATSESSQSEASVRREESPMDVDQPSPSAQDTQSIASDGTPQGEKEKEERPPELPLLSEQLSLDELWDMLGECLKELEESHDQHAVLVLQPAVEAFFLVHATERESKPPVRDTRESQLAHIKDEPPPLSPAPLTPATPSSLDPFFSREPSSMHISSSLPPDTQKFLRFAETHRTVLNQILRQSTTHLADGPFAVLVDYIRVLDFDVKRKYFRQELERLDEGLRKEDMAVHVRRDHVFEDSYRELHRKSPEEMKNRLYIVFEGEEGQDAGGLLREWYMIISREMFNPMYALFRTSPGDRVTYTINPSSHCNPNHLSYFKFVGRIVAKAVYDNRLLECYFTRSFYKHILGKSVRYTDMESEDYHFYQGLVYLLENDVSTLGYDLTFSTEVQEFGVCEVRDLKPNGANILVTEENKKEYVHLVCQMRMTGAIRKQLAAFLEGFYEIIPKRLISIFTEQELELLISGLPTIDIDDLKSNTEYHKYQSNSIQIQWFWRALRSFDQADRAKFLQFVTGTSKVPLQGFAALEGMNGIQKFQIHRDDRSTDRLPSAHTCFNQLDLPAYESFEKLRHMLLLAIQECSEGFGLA
UniProt P19474: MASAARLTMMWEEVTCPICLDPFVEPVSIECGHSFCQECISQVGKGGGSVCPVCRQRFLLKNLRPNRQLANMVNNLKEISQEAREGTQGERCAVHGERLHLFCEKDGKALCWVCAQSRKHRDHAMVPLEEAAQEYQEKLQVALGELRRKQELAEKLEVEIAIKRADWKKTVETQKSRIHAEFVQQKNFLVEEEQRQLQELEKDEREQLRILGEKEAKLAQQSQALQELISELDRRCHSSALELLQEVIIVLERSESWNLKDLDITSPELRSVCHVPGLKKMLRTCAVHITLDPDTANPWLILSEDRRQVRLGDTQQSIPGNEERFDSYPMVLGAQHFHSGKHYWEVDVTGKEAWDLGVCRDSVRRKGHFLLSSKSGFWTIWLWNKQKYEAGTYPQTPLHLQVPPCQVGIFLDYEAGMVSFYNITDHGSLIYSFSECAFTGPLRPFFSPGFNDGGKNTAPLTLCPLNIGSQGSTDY
UniProt Q14258: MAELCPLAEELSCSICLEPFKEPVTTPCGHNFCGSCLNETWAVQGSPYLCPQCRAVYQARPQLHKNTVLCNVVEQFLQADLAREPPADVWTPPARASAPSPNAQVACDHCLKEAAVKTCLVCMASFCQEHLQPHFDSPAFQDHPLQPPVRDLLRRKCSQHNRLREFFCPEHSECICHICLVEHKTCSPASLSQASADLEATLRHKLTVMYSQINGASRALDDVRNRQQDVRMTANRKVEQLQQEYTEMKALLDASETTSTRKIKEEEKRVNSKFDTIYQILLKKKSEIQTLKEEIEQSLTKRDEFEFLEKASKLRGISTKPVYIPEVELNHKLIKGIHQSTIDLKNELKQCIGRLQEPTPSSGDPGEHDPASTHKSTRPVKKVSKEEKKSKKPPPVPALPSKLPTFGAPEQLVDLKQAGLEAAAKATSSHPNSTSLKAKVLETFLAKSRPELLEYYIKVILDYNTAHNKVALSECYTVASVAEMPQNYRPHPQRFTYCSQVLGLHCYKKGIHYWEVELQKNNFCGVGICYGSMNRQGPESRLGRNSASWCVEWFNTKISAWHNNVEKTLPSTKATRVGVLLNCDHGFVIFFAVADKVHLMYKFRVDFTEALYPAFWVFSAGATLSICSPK
UniProt P45974: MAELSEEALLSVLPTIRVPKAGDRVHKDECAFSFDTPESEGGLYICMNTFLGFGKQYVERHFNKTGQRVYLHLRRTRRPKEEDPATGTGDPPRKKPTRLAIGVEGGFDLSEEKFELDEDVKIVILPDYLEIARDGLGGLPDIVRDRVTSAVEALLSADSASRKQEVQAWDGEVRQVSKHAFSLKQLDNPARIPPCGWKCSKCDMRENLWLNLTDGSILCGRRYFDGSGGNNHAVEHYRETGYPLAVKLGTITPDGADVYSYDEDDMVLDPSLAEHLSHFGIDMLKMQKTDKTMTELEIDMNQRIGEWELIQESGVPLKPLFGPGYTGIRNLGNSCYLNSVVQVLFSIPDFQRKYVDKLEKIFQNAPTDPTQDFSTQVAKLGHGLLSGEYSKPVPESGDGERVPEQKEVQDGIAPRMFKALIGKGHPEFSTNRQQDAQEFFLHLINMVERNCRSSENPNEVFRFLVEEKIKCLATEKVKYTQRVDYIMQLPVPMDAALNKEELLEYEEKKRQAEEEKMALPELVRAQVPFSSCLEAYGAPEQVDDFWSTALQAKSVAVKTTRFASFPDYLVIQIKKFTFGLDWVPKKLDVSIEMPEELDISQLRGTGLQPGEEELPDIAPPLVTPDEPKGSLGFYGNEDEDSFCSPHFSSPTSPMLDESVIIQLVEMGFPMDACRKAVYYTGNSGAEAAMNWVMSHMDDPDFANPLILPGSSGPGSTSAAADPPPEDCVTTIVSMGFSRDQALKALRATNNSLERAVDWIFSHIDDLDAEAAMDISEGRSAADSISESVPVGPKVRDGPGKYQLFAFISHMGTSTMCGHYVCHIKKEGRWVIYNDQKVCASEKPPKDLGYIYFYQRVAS

According to paper PMC10787506:

target: T1, ATP-dependent 6-phosphofructokinase, platelet type (human (endogenous in MDA-MB-231 and SUM-159)) (UniProt Q01813); test: affinity purification with mass spectrometry; Co-IP of PFKP from MDA-MB-231 cells followed by mass spectrometry-based protein identification
T1 sequence: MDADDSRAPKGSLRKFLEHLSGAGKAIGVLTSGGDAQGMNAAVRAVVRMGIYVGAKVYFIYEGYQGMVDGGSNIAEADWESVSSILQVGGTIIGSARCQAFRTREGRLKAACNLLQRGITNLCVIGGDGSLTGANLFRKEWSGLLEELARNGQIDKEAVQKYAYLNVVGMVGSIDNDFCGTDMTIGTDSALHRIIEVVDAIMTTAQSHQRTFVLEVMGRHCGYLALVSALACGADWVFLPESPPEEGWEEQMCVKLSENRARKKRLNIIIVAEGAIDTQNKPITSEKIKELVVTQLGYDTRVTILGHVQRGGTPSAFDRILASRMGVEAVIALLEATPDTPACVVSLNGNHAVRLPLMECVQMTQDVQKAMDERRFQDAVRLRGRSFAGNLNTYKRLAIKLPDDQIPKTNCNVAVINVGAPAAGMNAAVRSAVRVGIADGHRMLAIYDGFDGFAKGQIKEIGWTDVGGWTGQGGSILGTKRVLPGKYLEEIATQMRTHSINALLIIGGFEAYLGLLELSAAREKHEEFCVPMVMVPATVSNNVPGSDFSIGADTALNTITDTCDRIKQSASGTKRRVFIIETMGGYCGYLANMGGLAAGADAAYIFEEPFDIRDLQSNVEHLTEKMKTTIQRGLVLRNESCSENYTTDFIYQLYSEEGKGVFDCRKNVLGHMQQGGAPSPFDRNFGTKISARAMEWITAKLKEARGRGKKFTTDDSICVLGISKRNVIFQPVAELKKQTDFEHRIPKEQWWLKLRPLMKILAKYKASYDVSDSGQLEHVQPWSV

Row | Substance | binding
1 | HECT, UBA and WWE domain-containing protein 1 (from UniProt Q7Z6Z7 1-4374) (enzyme) | binds
2 | Tripartite motif-containing protein 21 (from UniProt P19474 1-475) (enzyme) | binds
3 | Tripartite motif-containing protein 25 (from UniProt Q14258 1-630) (enzyme) | binds
4 | Ubiquitin carboxyl-terminal hydrolase 5 (from UniProt P45974 1-858) (enzyme) | binds

These are yes or no findings as the source states them, for the method shown. In cells and extracts the contact can be indirect. A yes stands for co-enrichment or nearness to the bait. Other partners may have been found.
